# Values from PubChem BioAssay AID1259405 (NCATS, 2018)
# Assay: 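Silenced genes that increase secreted GFP made by CHO cells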 (primary screen)
# Cell system: Chinese hamster CHO-K1 ovary cells with stable secreted eGFP expression
# Reagents: single siRNA against mouse genes, 0.8 pmol siRNA per well (2 µl of 400 nM stock)
# Timing: 3 days
# Detection: 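Percent of the per-plate non-targeting control median for intracellular GFP per well by laser scanning cytometry and for cell viability by ATP luminescence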
# Reading the numbers: GFP, % of control: higher = more GFP per well, higher productivity; viability (ATP), % of control: higher = more viable cells (more ATP)
# Hit rule: 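a knock-down is called active if GFP reaches 120% or more of non-targeting control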
# This is one part, drawn at random, of about 50,000 reagents tested. Of all reagents, about 4,000 (8%) are marked active. 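Mouse siRNA library applied to hamster cells; one well for each siRNA.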 Entries without a mark were called inactive. The numbers tell different reagents against one gene apart.
target,reagent no.,"GFP, % of control","viability (ATP), % of control"
Or4k15b (olfactory receptor family 4 subfamily K member 15B),1,52.3,60.1
Or4k15b (olfactory receptor family 4 subfamily K member 15B),2,114,75.3
Or4k15b (olfactory receptor family 4 subfamily K member 15B),3,70.2,106
Agtpbp1 (ATP/GTP binding protein 1),1,115,89.8
Agtpbp1 (ATP/GTP binding protein 1),2,49.7,80.2
Agtpbp1 (ATP/GTP binding protein 1),3,108,109
Sae1 (SUMO1 activating enzyme subunit 1),1,64.2,76.7
Sae1 (SUMO1 activating enzyme subunit 1),2,75.1,70.8
Sae1 (SUMO1 activating enzyme subunit 1),3,84.1,94.6
B230317F23Rik (RIKEN cDNA B230317F23 gene),1,71.2,62.9
B230317F23Rik (RIKEN cDNA B230317F23 gene),2,74.1,101
B230317F23Rik (RIKEN cDNA B230317F23 gene),3,97.5,72.9
Rnf121 (ring finger protein 121),1,91.6,87.7
Rnf121 (ring finger protein 121),2,75.4,72.4
Rnf121 (ring finger protein 121),3,60.3,87.9
Zswim3 (zinc finger SWIM-type containing 3),1,151 (active),79.1
Zswim3 (zinc finger SWIM-type containing 3),2,18,53.1
Zswim3 (zinc finger SWIM-type containing 3),3,61,83.3
Zswim3 (zinc finger SWIM-type containing 3),4,104,82.4
Zswim3 (zinc finger SWIM-type containing 3),5,106,91.1
Zswim3 (zinc finger SWIM-type containing 3),6,133 (active),87.5
Acacb (acetyl-Coenzyme A carboxylase beta),1,53,56.9
Acacb (acetyl-Coenzyme A carboxylase beta),2,114,118
Acacb (acetyl-Coenzyme A carboxylase beta),3,130 (active),124
Shbg (sex hormone binding globulin),1,108,91.2
Shbg (sex hormone binding globulin),2,132 (active),128
Shbg (sex hormone binding globulin),3,133 (active),154
Fbxo41 (F-box protein 41),1,75.5,85.2
Fbxo41 (F-box protein 41),2,68.2,50.6
Fbxo41 (F-box protein 41),3,82.2,83.3
Eogt (EGF domain specific O-linked N-acetylglucosamine transferase),1,123 (active),120
Eogt (EGF domain specific O-linked N-acetylglucosamine transferase),2,70.5,64.3
Eogt (EGF domain specific O-linked N-acetylglucosamine transferase),3,77.3,75.5
"H2-DMb2 (histocompatibility 2, class II, locus Mb2)",1,39.4,50.3
"H2-DMb2 (histocompatibility 2, class II, locus Mb2)",2,76.1,83.3
"H2-DMb2 (histocompatibility 2, class II, locus Mb2)",3,13.2,36.1
Tmem245 (transmembrane protein 245),1,82.6,93.4
Tmem245 (transmembrane protein 245),2,2.25,2.58
Tmem245 (transmembrane protein 245),3,91.9,97.4
"Il2ra (interleukin 2 receptor, alpha chain)",1,78.8,72.7
"Il2ra (interleukin 2 receptor, alpha chain)",2,103,86.4
"Il2ra (interleukin 2 receptor, alpha chain)",3,67.8,48.6
Prelid3a (PRELI domain containing 3A),1,61.7,61
Prelid3a (PRELI domain containing 3A),2,44.1,83.5
Prelid3a (PRELI domain containing 3A),3,104,82.9
Cpsf7 (cleavage and polyadenylation specific factor 7),1,71,75.8
Cpsf7 (cleavage and polyadenylation specific factor 7),2,63.9,67.2
Cpsf7 (cleavage and polyadenylation specific factor 7),3,32,47.5

Called active (from the list above):
target,reagent no.,"GFP, % of control","viability (ATP), % of control"
Zswim3 (zinc finger SWIM-type containing 3),1,151 (active),79.1
Zswim3 (zinc finger SWIM-type containing 3),6,133 (active),87.5
Acacb (acetyl-Coenzyme A carboxylase beta),3,130 (active),124
Shbg (sex hormone binding globulin),2,132 (active),128
Shbg (sex hormone binding globulin),3,133 (active),154
Eogt (EGF domain specific O-linked N-acetylglucosamine transferase),1,123 (active),120

More entries:
target,reagent no.,"GFP, % of control","viability (ATP), % of control"
Rps24 (ribosomal protein S24),1,27.5,22.7
Rps24 (ribosomal protein S24),2,47.8,28.7
Rps24 (ribosomal protein S24),3,37.2,22.2
Antxr1 (anthrax toxin receptor 1),1,108,68.3
Antxr1 (anthrax toxin receptor 1),2,61.7,64.7
Antxr1 (anthrax toxin receptor 1),3,179 (active),55
Exoc3l (exocyst complex component 3-like),1,58.8,84.5
Exoc3l (exocyst complex component 3-like),2,82.2,68.3
Exoc3l (exocyst complex component 3-like),3,63.6,80.3
Ripply1 (ripply transcriptional repressor 1),1,50.2,46.6
Ripply1 (ripply transcriptional repressor 1),2,24.7,32.3
Ripply1 (ripply transcriptional repressor 1),3,72.6,92.8
Ier3 (immediate early response 3),1,48.5,58.5
Ier3 (immediate early response 3),2,97.1,81.7
Ier3 (immediate early response 3),3,151 (active),94.4
Csprs (component of Sp100-rs),1,128 (active),81.5
Csprs (component of Sp100-rs),2,45.4,40.3
Csprs (component of Sp100-rs),3,105,84.1
Sdf2l1 (stromal cell-derived factor 2-like 1),1,50.9,61.3
Sdf2l1 (stromal cell-derived factor 2-like 1),2,78.9,57.5
Sdf2l1 (stromal cell-derived factor 2-like 1),3,77.6,91.8
"Mettl4 (methyltransferase 4, N6-adenosine)",1,67.3,88.9
"Mettl4 (methyltransferase 4, N6-adenosine)",2,105,65.1
"Mettl4 (methyltransferase 4, N6-adenosine)",3,86.8,67.8
Frmd4a (FERM domain containing 4A),1,65.5,59.9
Frmd4a (FERM domain containing 4A),2,75.8,76.3
Frmd4a (FERM domain containing 4A),3,59.4,51.2
Krt82 (keratin 82),1,50.5,51
Krt82 (keratin 82),2,75.5,72
Krt82 (keratin 82),3,120 (active),56
Pih1d2 (PIH1 domain containing 2),1,97.5,78.7
Pih1d2 (PIH1 domain containing 2),2,50.7,54.5
Pih1d2 (PIH1 domain containing 2),3,71.8,88.4
Or2n1 (olfactory receptor family 2 subfamily N member 1),1,80.7,72
Or2n1 (olfactory receptor family 2 subfamily N member 1),2,33,25.3
Or2n1 (olfactory receptor family 2 subfamily N member 1),3,50,89.1
Rnf138 (ring finger protein 138),1,59.2,70.5
Rnf138 (ring finger protein 138),2,61.5,53.4
Rnf138 (ring finger protein 138),3,80.6,87.3
Cd99 (CD99 antigen),1,78.4,68.2
Cd99 (CD99 antigen),2,76.4,49.3
Cd99 (CD99 antigen),3,67.3,88.8
Csl (citrate synthase like),1,31.1,22.4
Csl (citrate synthase like),2,149 (active),56.4
Csl (citrate synthase like),3,62.5,95
Pex12 (peroxisomal biogenesis factor 12),1,53.8,74.8
Pex12 (peroxisomal biogenesis factor 12),2,58.4,73.4
Pex12 (peroxisomal biogenesis factor 12),3,189 (active),140
Ccdc171 (coiled-coil domain containing 171),1,53.8,43.6
Ccdc171 (coiled-coil domain containing 171),2,46.8,27.5
Ccdc171 (coiled-coil domain containing 171),3,74.4,87.4
Cflar (CASP8 and FADD-like apoptosis regulator),1,127 (active),105
Cflar (CASP8 and FADD-like apoptosis regulator),2,144 (active),89.5
Cflar (CASP8 and FADD-like apoptosis regulator),3,41.4,49.9
Rnf115 (ring finger protein 115),1,52.2,47.8
Rnf115 (ring finger protein 115),2,69.2,75
Rnf115 (ring finger protein 115),3,72.1,95
Cpb1 (carboxypeptidase B1),1,77,63.9
Cpb1 (carboxypeptidase B1),2,47.8,57.2
Cpb1 (carboxypeptidase B1),3,57.8,67.7
